Data on four molecules can be found in publication PMC12702058.

Protein sequences, listed by entry. Tags and fused reporters are not part of them. Lines headed by an entry give the natural chain unless they say otherwise; changes in a name come on top. Chains listed by the source or under a name are the forms on record and can include a tag or linker.
UniProt Q01628: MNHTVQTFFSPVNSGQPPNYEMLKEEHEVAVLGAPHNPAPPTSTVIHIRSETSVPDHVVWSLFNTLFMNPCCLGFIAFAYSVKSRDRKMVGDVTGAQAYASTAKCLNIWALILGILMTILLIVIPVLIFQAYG
FLAG-IFITM3 mutant lacking the N-terminal amino acids 21 to 57 (Q01628, form named): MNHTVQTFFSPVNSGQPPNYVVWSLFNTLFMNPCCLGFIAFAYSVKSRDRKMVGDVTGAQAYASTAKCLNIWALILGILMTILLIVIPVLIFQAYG

Results are given in words; binding and its absence hold for the method and conditions named. Binding seen in cells or lysates may run through a third protein. Some binding calls cover weakened binding; strength is not graded here. Tags and fused reporters may be left off the sequences shown.

Assay [1] addresses T1, full-length MARCH8-Myc (human) (UniProt Q5T0T0).
T1 sequence: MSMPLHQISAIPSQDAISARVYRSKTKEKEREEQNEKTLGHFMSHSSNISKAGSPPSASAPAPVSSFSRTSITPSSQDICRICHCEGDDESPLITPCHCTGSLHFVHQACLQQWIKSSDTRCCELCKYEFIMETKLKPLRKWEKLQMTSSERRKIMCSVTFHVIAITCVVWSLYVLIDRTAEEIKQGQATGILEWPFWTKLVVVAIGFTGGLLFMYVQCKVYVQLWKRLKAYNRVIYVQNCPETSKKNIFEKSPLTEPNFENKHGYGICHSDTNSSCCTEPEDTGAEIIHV
The assay can be described thus: co-IP; HEK293T cells cotransfected with MARCH8 and IFITM3 (full length or truncation mutants); IP lysis buffer (50 mM Tris-HCl pH 7.5, 150 mM NaCl, 0.2% Triton X-100, 10% glycerol), antibody-conjugated agarose beads, 4 °C, 2 h; Western blot. (Immunoblotting shows a protein as a band on a membrane.)

Assay [2] concerns the target T2, FLAG-MARCH8 (Membrane-Associated RING-CH 8) (human) (UniProt Q5T0T0).
T2 sequence: T1 sequence
The assay can be described thus: co-IP; HeLa cells, MARCH8 with endogenous IFITM3; IP lysis buffer, antibody-conjugated agarose beads, 4 °C, 2 h; Western blot.

The target of assay [3] is FLAG-IFITM3 mutant lacking the N-terminal amino acids 21 to 57 (human) (UniProt Q01628). The assay can be described thus: co-IP; HEK293T cells cotransfected with MARCH8 and IFITM3 (full length or truncation mutants); IP lysis buffer (50 mM Tris-HCl pH 7.5, 150 mM NaCl, 0.2% Triton X-100, 10% glycerol), antibody-conjugated agarose beads, 4 °C, 2 h; Western blot.
In assay [4] the target is full-length FLAG-IFITM3 (human) (UniProt Q01628). The assay is described as above.
Assay [5] concerns the target IFITM3 BiFC fusion (human) (UniProt Q01628). The assay can be described thus: split reporter; BiFC: HeLa cells cotransfected with pBiFC-HA-VC155 and pBiFC-FLAG-VN173 constructs, 24 h, confocal imaging.

For the molecule “full-length FLAG-IFITM3 (from UniProt Q01628 1-133)”, the binding entry in assay [1] is recorded as “binds”.
Regarding “interferon-induced transmembrane protein 3 (IFITM3), endogenous (from UniProt Q01628 1-133)”, the binding result in assay [2] is given as “binds”.

B1: full-length MARCH8-Myc (enzyme, UniProt Q5T0T0 1-291)
chain: T1 sequence
Turning to B1, the binding result is on record as “no binding” in assay [3] and “binds” in assay [4].

B2: MARCH8 BiFC fusion (enzyme, UniProt Q5T0T0 1-291)
chain: T1 sequence
Consider B2, for which, in assay [5], the binding result is recorded as “binds”.
